Among the data in the supplement of paper PMC6411743 are NP40-soluble protein abundance values, retold here.

Amino acid sequences for entries named in this document (tags omitted). A change or cut given only in a name is not applied to a line headed by its entry.
UniProt Q8TE99: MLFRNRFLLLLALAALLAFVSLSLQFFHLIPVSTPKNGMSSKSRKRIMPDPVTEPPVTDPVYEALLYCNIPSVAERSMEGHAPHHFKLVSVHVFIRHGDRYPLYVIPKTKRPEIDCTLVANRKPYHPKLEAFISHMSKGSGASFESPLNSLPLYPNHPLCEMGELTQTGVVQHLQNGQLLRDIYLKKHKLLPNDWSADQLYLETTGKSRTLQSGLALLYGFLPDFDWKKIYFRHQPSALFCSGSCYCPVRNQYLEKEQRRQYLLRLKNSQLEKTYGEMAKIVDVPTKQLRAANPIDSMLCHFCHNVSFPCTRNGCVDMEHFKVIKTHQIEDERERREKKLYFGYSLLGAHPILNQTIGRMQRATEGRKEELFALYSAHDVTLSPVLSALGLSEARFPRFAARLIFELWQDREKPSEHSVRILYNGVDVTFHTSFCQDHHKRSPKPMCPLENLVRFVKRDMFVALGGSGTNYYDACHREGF
UniProt Q9GZV4: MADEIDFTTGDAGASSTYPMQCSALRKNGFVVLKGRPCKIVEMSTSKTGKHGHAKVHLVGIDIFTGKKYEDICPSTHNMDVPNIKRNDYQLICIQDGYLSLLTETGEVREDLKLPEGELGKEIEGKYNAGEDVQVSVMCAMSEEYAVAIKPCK
UniProt Q16774: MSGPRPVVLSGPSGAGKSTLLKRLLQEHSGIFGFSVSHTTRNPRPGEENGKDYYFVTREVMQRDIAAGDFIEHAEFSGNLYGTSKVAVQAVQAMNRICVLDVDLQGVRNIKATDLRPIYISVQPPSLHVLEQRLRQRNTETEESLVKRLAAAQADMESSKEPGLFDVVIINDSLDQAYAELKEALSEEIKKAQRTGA
UniProt Q96FF9: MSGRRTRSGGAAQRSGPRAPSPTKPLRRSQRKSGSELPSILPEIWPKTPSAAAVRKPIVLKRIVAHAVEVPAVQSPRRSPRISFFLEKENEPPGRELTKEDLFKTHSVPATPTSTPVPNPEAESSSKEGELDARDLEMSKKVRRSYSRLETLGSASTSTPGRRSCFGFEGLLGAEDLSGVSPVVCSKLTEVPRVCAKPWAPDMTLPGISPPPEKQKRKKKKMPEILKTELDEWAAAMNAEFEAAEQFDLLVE
UniProt Q9NVN3: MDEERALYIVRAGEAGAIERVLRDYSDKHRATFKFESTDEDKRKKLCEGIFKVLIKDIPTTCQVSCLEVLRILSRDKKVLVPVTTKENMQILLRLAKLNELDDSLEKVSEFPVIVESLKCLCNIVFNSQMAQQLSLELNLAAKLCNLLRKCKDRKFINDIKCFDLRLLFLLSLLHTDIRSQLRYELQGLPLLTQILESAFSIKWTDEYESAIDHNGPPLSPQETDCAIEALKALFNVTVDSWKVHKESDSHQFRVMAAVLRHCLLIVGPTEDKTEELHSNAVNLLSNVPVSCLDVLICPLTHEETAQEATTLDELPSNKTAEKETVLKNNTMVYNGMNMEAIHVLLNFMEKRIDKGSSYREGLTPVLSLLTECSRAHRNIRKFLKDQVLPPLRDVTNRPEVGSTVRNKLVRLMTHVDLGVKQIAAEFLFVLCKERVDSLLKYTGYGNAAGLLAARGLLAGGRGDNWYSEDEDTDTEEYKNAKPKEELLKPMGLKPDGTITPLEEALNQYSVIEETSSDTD
UniProt Q9NRN9: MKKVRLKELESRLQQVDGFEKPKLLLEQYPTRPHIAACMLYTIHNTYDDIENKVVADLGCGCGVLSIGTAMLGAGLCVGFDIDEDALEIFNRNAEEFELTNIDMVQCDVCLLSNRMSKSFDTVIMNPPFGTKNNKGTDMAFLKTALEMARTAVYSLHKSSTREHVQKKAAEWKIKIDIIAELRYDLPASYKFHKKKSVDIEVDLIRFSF
UniProt Q96EQ0: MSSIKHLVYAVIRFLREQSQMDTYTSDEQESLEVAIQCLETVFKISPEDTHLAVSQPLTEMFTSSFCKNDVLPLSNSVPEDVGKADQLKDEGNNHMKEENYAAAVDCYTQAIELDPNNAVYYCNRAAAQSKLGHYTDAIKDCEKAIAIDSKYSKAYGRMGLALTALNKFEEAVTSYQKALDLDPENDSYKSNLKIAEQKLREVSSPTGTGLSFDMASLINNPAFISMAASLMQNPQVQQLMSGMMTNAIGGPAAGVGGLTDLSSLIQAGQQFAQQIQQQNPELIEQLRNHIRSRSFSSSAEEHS
UniProt Q92664: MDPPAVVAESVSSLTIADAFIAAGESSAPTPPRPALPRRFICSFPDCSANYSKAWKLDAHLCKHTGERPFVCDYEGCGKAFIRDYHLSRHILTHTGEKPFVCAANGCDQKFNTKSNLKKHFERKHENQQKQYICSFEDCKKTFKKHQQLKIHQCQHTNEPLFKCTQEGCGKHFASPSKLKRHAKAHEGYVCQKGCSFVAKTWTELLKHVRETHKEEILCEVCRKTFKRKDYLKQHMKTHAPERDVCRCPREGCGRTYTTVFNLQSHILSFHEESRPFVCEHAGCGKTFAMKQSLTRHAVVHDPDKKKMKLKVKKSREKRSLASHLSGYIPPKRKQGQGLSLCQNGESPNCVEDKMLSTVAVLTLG
UniProt P51617, whole entry, looked up: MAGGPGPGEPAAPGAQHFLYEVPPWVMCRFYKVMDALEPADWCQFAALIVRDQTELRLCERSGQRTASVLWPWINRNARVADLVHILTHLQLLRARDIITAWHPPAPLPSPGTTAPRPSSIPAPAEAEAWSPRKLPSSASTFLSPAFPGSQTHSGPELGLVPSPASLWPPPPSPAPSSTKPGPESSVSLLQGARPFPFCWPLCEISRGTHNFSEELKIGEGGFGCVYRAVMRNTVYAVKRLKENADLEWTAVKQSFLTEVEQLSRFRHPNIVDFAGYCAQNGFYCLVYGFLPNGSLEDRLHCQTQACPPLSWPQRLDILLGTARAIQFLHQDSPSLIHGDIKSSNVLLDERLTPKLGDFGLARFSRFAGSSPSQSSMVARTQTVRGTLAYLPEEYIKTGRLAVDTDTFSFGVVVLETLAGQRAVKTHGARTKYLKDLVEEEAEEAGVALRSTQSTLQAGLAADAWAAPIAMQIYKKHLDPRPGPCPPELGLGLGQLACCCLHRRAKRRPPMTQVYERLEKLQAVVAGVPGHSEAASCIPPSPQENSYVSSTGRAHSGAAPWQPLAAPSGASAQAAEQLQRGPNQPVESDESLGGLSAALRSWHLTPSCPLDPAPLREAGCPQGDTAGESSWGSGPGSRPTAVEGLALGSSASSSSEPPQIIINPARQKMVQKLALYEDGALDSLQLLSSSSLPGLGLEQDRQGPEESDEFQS
UniProt A8MWY0: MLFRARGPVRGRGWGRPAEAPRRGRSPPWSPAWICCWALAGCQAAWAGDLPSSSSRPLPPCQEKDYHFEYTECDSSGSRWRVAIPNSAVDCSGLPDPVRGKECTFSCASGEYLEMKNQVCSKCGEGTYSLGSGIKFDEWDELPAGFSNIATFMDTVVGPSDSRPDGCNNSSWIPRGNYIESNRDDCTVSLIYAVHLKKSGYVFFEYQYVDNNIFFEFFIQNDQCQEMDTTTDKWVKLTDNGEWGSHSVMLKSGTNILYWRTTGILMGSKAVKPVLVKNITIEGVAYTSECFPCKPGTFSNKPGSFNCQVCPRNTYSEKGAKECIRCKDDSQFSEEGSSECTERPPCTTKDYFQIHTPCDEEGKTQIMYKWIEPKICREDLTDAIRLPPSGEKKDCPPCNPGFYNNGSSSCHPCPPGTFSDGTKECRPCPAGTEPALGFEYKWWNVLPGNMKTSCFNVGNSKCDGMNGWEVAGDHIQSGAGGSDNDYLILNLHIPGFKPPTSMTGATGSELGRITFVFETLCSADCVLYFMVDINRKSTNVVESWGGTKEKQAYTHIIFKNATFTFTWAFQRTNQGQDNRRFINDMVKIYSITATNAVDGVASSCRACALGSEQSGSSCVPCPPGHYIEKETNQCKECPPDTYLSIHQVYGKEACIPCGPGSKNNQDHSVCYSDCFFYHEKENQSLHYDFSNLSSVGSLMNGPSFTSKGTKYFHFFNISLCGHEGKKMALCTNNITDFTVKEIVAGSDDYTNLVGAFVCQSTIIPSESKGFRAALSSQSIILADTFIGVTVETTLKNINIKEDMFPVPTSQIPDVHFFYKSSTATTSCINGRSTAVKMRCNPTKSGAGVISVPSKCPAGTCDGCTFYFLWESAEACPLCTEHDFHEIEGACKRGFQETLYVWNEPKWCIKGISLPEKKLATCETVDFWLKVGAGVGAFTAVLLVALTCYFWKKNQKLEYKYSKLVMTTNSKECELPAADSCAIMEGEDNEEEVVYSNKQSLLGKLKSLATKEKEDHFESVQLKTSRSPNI
UniProt A6NFI3: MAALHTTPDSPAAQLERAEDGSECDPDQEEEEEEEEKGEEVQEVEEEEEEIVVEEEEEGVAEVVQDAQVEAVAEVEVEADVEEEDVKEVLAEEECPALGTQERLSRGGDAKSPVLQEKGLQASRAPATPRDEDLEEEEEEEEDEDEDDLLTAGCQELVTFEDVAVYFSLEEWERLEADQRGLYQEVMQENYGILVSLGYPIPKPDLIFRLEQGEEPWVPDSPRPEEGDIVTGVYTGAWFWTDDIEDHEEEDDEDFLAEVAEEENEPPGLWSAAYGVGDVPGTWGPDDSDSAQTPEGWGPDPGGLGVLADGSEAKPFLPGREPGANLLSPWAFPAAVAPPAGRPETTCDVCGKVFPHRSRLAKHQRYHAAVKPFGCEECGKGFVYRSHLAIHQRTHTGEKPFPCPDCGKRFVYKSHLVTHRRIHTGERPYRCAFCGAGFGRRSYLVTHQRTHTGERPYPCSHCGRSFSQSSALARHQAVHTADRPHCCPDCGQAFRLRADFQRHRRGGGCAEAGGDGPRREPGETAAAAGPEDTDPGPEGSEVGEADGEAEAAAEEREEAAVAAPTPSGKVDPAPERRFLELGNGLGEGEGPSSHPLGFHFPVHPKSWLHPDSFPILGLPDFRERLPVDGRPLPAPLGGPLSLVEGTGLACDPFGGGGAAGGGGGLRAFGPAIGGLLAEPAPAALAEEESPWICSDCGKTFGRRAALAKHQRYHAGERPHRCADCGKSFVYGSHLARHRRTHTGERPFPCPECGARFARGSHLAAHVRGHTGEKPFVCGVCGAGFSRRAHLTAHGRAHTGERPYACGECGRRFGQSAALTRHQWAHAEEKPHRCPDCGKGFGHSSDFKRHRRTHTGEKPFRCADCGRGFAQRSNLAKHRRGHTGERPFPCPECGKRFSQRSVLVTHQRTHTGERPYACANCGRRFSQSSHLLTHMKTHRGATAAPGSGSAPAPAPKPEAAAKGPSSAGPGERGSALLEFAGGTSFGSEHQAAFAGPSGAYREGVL
UniProt Q8IVH2: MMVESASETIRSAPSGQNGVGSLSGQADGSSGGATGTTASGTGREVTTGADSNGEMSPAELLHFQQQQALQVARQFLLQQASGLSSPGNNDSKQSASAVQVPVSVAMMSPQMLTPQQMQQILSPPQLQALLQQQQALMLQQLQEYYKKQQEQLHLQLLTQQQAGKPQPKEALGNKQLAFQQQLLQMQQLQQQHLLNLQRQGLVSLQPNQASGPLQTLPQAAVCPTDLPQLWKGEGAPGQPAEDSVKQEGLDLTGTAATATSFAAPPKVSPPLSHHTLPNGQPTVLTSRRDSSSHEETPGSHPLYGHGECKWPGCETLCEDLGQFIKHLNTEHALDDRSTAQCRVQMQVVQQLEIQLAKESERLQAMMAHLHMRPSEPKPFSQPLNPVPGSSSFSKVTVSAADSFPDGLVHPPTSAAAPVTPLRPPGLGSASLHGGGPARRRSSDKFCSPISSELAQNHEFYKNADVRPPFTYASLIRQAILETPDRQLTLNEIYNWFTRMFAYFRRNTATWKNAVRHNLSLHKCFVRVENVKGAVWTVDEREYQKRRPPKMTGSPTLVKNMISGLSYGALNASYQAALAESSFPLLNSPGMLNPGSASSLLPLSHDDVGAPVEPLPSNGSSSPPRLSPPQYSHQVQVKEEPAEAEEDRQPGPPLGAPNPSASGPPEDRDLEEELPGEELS
UniProt Q6P9H5: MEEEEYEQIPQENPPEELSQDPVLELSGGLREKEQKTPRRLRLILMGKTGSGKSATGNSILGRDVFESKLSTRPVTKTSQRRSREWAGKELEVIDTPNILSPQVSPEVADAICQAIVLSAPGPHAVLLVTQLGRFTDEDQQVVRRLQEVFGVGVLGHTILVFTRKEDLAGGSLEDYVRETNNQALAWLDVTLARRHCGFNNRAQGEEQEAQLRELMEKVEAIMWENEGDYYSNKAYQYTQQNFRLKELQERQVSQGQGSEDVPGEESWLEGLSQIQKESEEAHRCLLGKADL
UniProt O94905: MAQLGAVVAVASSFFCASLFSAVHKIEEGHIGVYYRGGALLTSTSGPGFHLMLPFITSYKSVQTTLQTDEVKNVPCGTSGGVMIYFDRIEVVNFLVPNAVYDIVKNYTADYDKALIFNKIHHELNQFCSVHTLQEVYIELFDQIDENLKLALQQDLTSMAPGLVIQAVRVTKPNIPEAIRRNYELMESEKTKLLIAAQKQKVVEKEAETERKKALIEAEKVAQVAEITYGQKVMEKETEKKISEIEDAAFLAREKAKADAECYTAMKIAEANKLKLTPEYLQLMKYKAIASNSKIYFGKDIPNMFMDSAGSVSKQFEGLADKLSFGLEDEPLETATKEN

Compound in this test: Nc1ncnc2c1ncn2[C@@H]1O[C@H](COP(=O)(O)OP(=O)(O)NP(=O)(O)O)[C@@H](O)[C@H]1O [adenylyl imidodiphosphate]
Briefly: NP40-soluble protein abundance relative to vehicle (solubility fold change) (ratio); higher = more soluble protein in presence of AMP-PNP. An outline of the steps: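 Eight concentrations, 0.1 to 10 mM, were tested on Jurkat crude lysate for 10 min at room temperature and then 3 min at 37 °C, in three independent experiments. The lysate was solubilised with 0.8% NP40 and benzonase, ultracentrifuged, and the supernatant TMT-labelled for LC-MS/MS. Each value is the fold change against the detergent-processed vehicle in its own replicate, from vsn-normalised intensities.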

± gives the standard deviation of the averaged measurements. The list shows a part of the results, in another mix than the full data. Most entries show no effect beyond the scatter of the controls.

As to “C9JQV3 and related entries (UniProt Q8N1F8)”, the NP40-soluble protein abundance by setting is: (concentration: 0.1mM) 1.01 ± 0.032; (concentration: 0.5mM) 0.996 ± 0.038.

Regarding “B7Z3R9 and related entries (UniProt Q8TE99)”, the NP40-soluble protein abundance (concentration: 0.1mM) was 0.955 ± 0.017 and the NP40-soluble protein abundance (concentration: 0.5mM) was 0.982 ± 0.02.

As for “B4DWF2 and related entries (UniProt Q9UKS7)”, the NP40-soluble protein abundance worked out at 1.03 ± 0.037 (concentration: 0.1mM) and 1.03 ± 0.025 (concentration: 0.5mM).

Regarding “E2QRN4 and related entries (UniProt Q5BKZ1)”, the NP40-soluble protein abundance is 1.05 ± 0.073 (concentration: 0.1mM) and 1.01 ± 0.076 (concentration: 0.5mM).

For “C9J4W5 and related entries (UniProt Q9GZV4)”, the NP40-soluble protein abundance is, setting by setting: (concentration: 0.1mM) 0.971 ± 0.017; (concentration: 0.5mM) 0.853 ± 0.085.

For “B1ANH0 and related entries (UniProt Q16774)”, the NP40-soluble protein abundance worked out at 1.003 ± 0.01 (concentration: 0.1mM) and 1.05 ± 0.026 (concentration: 0.5mM).

“B5MBX0 and related entries (UniProt Q96FF9)”: the NP40-soluble protein abundance runs as follows: (concentration: 0.1mM) 1.02 ± 0.0095; (concentration: 0.5mM) 0.999 ± 0.031.

On to “B1AKJ5 and related entries (UniProt O43847)”, for which the NP40-soluble protein abundance by setting is: (concentration: 0.1mM) 0.9988 ± 0.0069; (concentration: 0.5mM) 0.999 ± 0.034.

As for “B7WPL0 and related entries (UniProt Q9NVN3)”, the NP40-soluble protein abundance came to 1.02 ± 0.022 (concentration: 0.1mM) and 0.997 ± 0.021 (concentration: 0.5mM).

Regarding “B8ZZC8 and related entries (UniProt Q9NRN9)”, the NP40-soluble protein abundance was determined as 0.992 ± 0.0095 (concentration: 0.1mM) and 1.001 ± 0.008 (concentration: 0.5mM).

On to “D6RFW1 and related entries (UniProt Q96EQ0)”, for which the NP40-soluble protein abundance was 0.989 ± 0.038 (concentration: 0.1mM) and 1.06 ± 0.065 (concentration: 0.5mM).

As for “B7ZBK4 and related entries (UniProt Q92664)”, the NP40-soluble protein abundance by setting is: (concentration: 0.1mM) 1.01 ± 0.046; (concentration: 0.5mM) 0.996 ± 0.051.

On to “A9IYQ1 and related entries (UniProt Q9NTI5)”, for which the NP40-soluble protein abundance was 1.001 ± 0.0091 (concentration: 0.1mM) and 1 ± 0.012 (concentration: 0.5mM).

Consider “B5MCN7 and related entries (UniProt Q15788)”, for which the NP40-soluble protein abundance (concentration: 0.1mM) worked out at 1.01 ± 0.034 and the NP40-soluble protein abundance (concentration: 0.5mM) is 0.975 ± 0.017.

For “D3YTB5 and related entries (UniProt P51617)”, the NP40-soluble protein abundance (concentration: 0.1mM) was found to be 1.02 ± 0.02 and the NP40-soluble protein abundance (concentration: 0.5mM) worked out at 1.02 ± 0.036.

Consider UniProt A8MWY0 and related entries, for which the NP40-soluble protein abundance runs as follows: (concentration: 0.1mM) 1.04 ± 0.044; (concentration: 0.5mM) 0.987 ± 0.012.

Turning to ZNF316 (UniProt A6NFI3), the NP40-soluble protein abundance by setting is: (concentration: 0.1mM) 0.987 ± 0.03; (concentration: 0.5mM) 0.994 ± 0.025.

On to “B7ZBM3 and related entries (UniProt Q8IVH2)”, for which the NP40-soluble protein abundance by setting is: (concentration: 0.1mM) 0.957 ± 0.024; (concentration: 0.5mM) 0.967 ± 0.0099.

As to “B7ZM99 and related entries (UniProt Q6UB35)”, the NP40-soluble protein abundance (concentration: 0.1mM) was found to be 0.996 ± 0.015 and the NP40-soluble protein abundance (concentration: 0.5mM) came to 0.995 ± 0.044.

Take “C9IY40 and related entries (UniProt Q5T653)”: the NP40-soluble protein abundance by setting is: (concentration: 0.1mM) 1.03 ± 0.02; (concentration: 0.5mM) 0.9877 ± 0.0046.

Turning to “B4DH95 and related entries (UniProt Q6P9H5)”, the NP40-soluble protein abundance worked out at 1.03 ± 0.03 (concentration: 0.1mM) and 1.01 ± 0.06 (concentration: 0.5mM).

On to “E5RHW4 and related entries (UniProt O94905)”, for which the NP40-soluble protein abundance worked out at 1.01 ± 0.08 (concentration: 0.1mM) and 1.03 ± 0.097 (concentration: 0.5mM).
